Publication PMC8363014
These are yes or no findings as the source states them, for the method shown. Some entries that bind do so weakly or less than the wild type. For part of these data: Sequences can lack the tags named with a protein.

By UniProt entry, the sequences of proteins in these tests, tags left out.
UniProt Q6VAM4: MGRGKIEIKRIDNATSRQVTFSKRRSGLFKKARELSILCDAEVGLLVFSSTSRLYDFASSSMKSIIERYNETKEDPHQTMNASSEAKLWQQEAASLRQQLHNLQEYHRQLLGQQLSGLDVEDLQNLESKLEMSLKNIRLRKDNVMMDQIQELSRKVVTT

Tests used:
Assay in all cases: two-hybrid; SAPK9 in pGBKT7 (BD), OsMADS23 in pGADT7 (AD); yeast strain Y2H Gold; growth on SD/-Ade-His-Leu-Trp in the presence of aba and X-α-gal
[1] = molecular target: T1, SAPK8 (yeast two-hybrid construct) (rice) (UniProt Q7Y0B9)
T1 sequence: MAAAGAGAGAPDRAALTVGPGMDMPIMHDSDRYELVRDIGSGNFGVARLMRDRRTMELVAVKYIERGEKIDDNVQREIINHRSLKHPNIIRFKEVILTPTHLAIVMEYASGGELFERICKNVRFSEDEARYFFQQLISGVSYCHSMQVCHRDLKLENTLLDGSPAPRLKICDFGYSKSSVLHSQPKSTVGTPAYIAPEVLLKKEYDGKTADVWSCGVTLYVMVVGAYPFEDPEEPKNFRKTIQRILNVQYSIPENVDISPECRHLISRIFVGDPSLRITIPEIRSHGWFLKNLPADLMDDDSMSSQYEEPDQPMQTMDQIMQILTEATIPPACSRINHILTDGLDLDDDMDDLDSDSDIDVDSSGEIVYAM

[2] = molecular target: T2, SAPK10 (yeast two-hybrid construct) (rice) (UniProt Q75H77)
T2 sequence: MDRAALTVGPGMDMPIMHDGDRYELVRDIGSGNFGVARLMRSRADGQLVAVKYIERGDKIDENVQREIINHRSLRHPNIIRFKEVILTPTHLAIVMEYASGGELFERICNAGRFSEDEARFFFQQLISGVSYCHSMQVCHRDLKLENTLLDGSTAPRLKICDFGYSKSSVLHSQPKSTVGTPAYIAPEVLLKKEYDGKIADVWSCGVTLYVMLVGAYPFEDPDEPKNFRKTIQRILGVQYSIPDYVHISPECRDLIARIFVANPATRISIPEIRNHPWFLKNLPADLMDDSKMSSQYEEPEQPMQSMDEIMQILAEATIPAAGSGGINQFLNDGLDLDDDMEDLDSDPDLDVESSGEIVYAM

[3] = molecular target: T3, SAPK9 in pGBKT7 (binding domain fusion) (rice) (UniProt Q75V57)
T3 sequence: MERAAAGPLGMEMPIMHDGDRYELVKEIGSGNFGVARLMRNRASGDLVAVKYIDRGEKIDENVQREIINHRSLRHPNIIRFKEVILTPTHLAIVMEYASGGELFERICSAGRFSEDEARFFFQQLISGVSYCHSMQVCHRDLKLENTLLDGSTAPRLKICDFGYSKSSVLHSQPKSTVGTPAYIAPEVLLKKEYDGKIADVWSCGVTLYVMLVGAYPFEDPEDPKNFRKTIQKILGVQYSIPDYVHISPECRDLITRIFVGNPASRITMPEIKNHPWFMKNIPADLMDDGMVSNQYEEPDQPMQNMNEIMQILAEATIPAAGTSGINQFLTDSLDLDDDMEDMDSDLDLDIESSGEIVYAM

binding [1]: no binding
binding [2]: no binding
binding [3]: binds
Substance: OsMADS23 in pGADT7 (activation domain fusion) (from UniProt Q6VAM4 1-159)
